PubChem BioAssay AID1259308, NCATS, 2017
Screen: 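Genes whose loss raises luciferase production in HEK293 cells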 (primary screen). Cells: human HEK293 embryonic kidney cells stably expressing firefly luciferase (HEK-CMV-Luc2-Hygro). Reagents: single siRNA against human genes, 0.8 pmol siRNA per well. Timing: 72 h. Read-out: 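Luciferase light (ONE-Glo) measured on one replicate plate set and viability (CellTiter-Glo) on the other, scaled to a negative control siRNA, with robust z-scores and luciferase per cell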. Scale: total luciferase, z-score and total luciferase, % of control: higher = more reporter protein produced. Rule for the call: 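Active when the median/MAD z-score for overall luciferase is greater than 3; a gene was taken forward for validation with new siRNAs if at least two of its three siRNAs passed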. Meaning of the calls: active = raised luciferase; inactive = no rise.
The whole screen tested about 59,000 reagents; this is a random part of them. About 1,510 of all reagents (2.6%) count as active. 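Calls use total luciferase alone and ignore viability, so some active siRNAs may act by altering cell number.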 Reagents against one gene are numbered here. Not all columns of the deposit are shown.

KLF5 #1 | total luciferase, z-score = 0.576; total luciferase, % of control = 93.3; call = inactive
KLF5 #2 | total luciferase, z-score = 1.11; total luciferase, % of control = 104; call = inactive
KLF5 #3 | total luciferase, z-score = 0.325; total luciferase, % of control = 88.3; call = inactive
CDC42BPG #1 | total luciferase, z-score = -1.8; total luciferase, % of control = 46.1; call = inactive
CDC42BPG #2 | total luciferase, z-score = 1.87; total luciferase, % of control = 119; call = inactive
CDC42BPG #3 | total luciferase, z-score = 2; total luciferase, % of control = 122; call = inactive
FRS3 #1 | total luciferase, z-score = 0.911; total luciferase, % of control = 100; call = inactive
FRS3 #2 | total luciferase, z-score = -0.171; total luciferase, % of control = 78.5; call = inactive
FRS3 #3 | total luciferase, z-score = 0.855; total luciferase, % of control = 98.9; call = inactive
TPI1 #1 | total luciferase, z-score = 0.097; total luciferase, % of control = 83.8; call = inactive
TPI1 #2 | total luciferase, z-score = -1.25; total luciferase, % of control = 57.1; call = inactive
TPI1 #3 | total luciferase, z-score = 0.638; total luciferase, % of control = 94.6; call = inactive
ZBTB3 #1 | total luciferase, z-score = -0.183; total luciferase, % of control = 78.2; call = inactive
ZBTB3 #2 | total luciferase, z-score = 0.0955; total luciferase, % of control = 83.8; call = inactive
ZBTB3 #3 | total luciferase, z-score = -0.685; total luciferase, % of control = 68.3; call = inactive
LIPN #1 | total luciferase, z-score = 0.209; total luciferase, % of control = 86; call = inactive
LIPN #2 | total luciferase, z-score = 1.19; total luciferase, % of control = 105; call = inactive
LIPN #3 | total luciferase, z-score = 0.72; total luciferase, % of control = 96.2; call = inactive
ZP3 #1 | total luciferase, z-score = -0.844; total luciferase, % of control = 65.1; call = inactive
ZP3 #2 | total luciferase, z-score = -0.828; total luciferase, % of control = 65.4; call = inactive
ZP3 #3 | total luciferase, z-score = 0.951; total luciferase, % of control = 101; call = inactive
ROBO3 #1 | total luciferase, z-score = -1.79; total luciferase, % of control = 46.3; call = inactive
ROBO3 #2 | total luciferase, z-score = -0.91; total luciferase, % of control = 63.8; call = inactive
ROBO3 #3 | total luciferase, z-score = -0.947; total luciferase, % of control = 63.1; call = inactive
RCSD1 #1 | total luciferase, z-score = -1.56; total luciferase, % of control = 50.9; call = inactive
RCSD1 #2 | total luciferase, z-score = 2.48; total luciferase, % of control = 131; call = inactive
RCSD1 #3 | total luciferase, z-score = -0.817; total luciferase, % of control = 65.6; call = inactive
CXCL6 #1 | total luciferase, z-score = 1.25; total luciferase, % of control = 107; call = inactive
CXCL6 #2 | total luciferase, z-score = 0.643; total luciferase, % of control = 94.7; call = inactive
CXCL6 #3 | total luciferase, z-score = 0.623; total luciferase, % of control = 94.3; call = inactive
TMEM8B #1 | total luciferase, z-score = 0.267; total luciferase, % of control = 87.2; call = inactive
TMEM8B #2 | total luciferase, z-score = -2.29; total luciferase, % of control = 36.3; call = inactive
TMEM8B #3 | total luciferase, z-score = 0.442; total luciferase, % of control = 90.7; call = inactive

Not a retest: an excerpt of the list.
ZP3 #2 | total luciferase, z-score = -0.828; total luciferase, % of control = 65.4; call = inactive
ZP3 #3 | total luciferase, z-score = 0.951; total luciferase, % of control = 101; call = inactive
ROBO3 #1 | total luciferase, z-score = -1.79; total luciferase, % of control = 46.3; call = inactive
